Assay results as given in patent US20040086901A1, “Database for analyzing gene function and method of analyzing gene function by dspa” (priority 2000, published 2004).
Some results come without the dose or concentration used.

Experiments:
Assay type in all cases: cell-based
[1] = test system: cells expressing per-1; assay: DSPA drug sensitivity pattern, per-1 cells; details: drug sensitivity pattern of F25 + substance vs per-1
[2] = test system: cells expressing CD44/H-CAM; assay: DSPA drug sensitivity pattern, CD44/H-CAM cells; details: drug sensitivity pattern of F25 + substance vs CD44/H-CAM
[3] = test system: cells expressing CD44/3E; assay: DSPA drug sensitivity pattern, CD44/3E cells; details: drug sensitivity pattern of F25 + substance vs CD44/3E
[4] = test system: cells expressing CD44/3s; assay: DSPA drug sensitivity pattern, CD44/3s cells; details: drug sensitivity pattern of F25 + substance vs CD44/3s
[5] = test system: cells expressing Jagged-1; assay: DSPA drug sensitivity pattern, Jagged-1 cells; details: drug sensitivity pattern of F25 + substance vs Jagged-1
[6] = test system: cells expressing p94-WT; assay: DSPA drug sensitivity pattern, p94-WT cells; details: drug sensitivity pattern of F25 + substance vs p94-WT
[7] = test system: FBRCA1-13 cells; assay: DSPA drug sensitivity pattern, FBRCA1-13 cells; details: drug sensitivity pattern of F25 + substance vs FBRCA1-13
[8] = test system: FMDM2hwt-6 cells; assay: DSPA drug sensitivity pattern, FMDM2hwt-6 cells; details: drug sensitivity pattern of F25 + substance vs FMDM2hwt-6
[9] = test system: p27-3 cells; assay: DSPA drug sensitivity pattern, p27-3 cells; details: drug sensitivity pattern of F25 + substance vs p27-3
[10] = test system: MSSP-10 cells; assay: DSPA drug sensitivity pattern, MSSP-10 cells; details: drug sensitivity pattern of F25 + substance vs MSSP-10
[11] = test system: MM1 cells; assay: DSPA drug sensitivity pattern, MM1 cells; details: drug sensitivity pattern of F25 + substance vs MM1
[12] = test system: AMY1 cells; assay: DSPA drug sensitivity pattern, AMY1 cells; details: drug sensitivity pattern of F25 + substance vs AMY1
[13] = test system: Max cells; assay: DSPA drug sensitivity pattern, Max cells; details: drug sensitivity pattern of F25 + substance vs Max
[14] = test system: TERT-DN cells; assay: DSPA drug sensitivity pattern, TERT-DN cells; details: drug sensitivity pattern of F25 + substance vs TERT-DN
[15] = test system: PTEN-G129R cells; assay: DSPA drug sensitivity pattern, PTEN-G129R cells; details: drug sensitivity pattern of F25 + substance vs PTEN-G129R
[16] = test system: Bcl-2 cells; assay: DSPA drug sensitivity pattern, Bcl-2 cells; details: drug sensitivity pattern of F25 + substance vs Bcl-2
[17] = test system: per2 cells; assay: DSPA drug sensitivity pattern, per2 cells; details: drug sensitivity pattern of F25 + substance vs per2
[18] = test system: per3 cells; assay: DSPA drug sensitivity pattern, per3 cells; details: drug sensitivity pattern of F25 + substance vs per3
[19] = test system: Cyclin D1-11 cells; assay: DSPA drug sensitivity pattern, Cyclin D1-11 cells; details: drug sensitivity pattern of F25 + substance vs Cyclin D1-
[20] = test system: STAT2-4 cells; assay: DSPA drug sensitivity pattern, STAT2-4 cells; details: drug sensitivity pattern of F25 + substance vs STAT2-4
[21] = test system: Bad-22 cells; assay: DSPA drug sensitivity pattern, Bad-22 cells; details: drug sensitivity pattern of F25 + substance vs Bad-22
[22] = test system: FAPP-4 cells; assay: DSPA drug sensitivity pattern, FAPP-4 cells; details: drug sensitivity pattern of F25 + substance vs FAPP-4
[23] = test system: FHO-6 cells; assay: DSPA drug sensitivity pattern, FHO-6 cells; details: drug sensitivity pattern of F25 + substance vs FHO-6

CCCNC(=O)[C@H]1O[C@@H]1C(=O)N[C@H](C(=O)N1CCC[C@H]1C(=O)O)[C@@H](C)CC [CA-074]
correlation coefficient (r) with per-1 [1]: −0.30 | correlation coefficient (r) with CD44/H-CAM [2]: 0.21 | correlation coefficient (r) with CD44/3E [3]: −0.03 | correlation coefficient (r) with CD44/3s [4]: 0.20 | correlation coefficient (r) with Jagged-1 [5]: 0.49 | correlation coefficient (r) with p94-WT [6]: 0.29 | correlation coefficient (r) with FBRCA1-13 [7]: −0.01 | correlation coefficient (r) with FMDM2hwt-6 [8]: 0.20 | correlation coefficient (r) with p27-3 [9]: 0.43 | correlation coefficient (r) with MSSP-10 [10]: 0.35 | correlation coefficient (r) with MM1 [11]: 0.14 | correlation coefficient (r) with AMY1 [12]: 0.02 | correlation coefficient (r) with Max [13]: 0.00 | correlation coefficient (r) with TERT-DN [14]: −0.41 | correlation coefficient (r) with PTEN-G129R [15]: −0.34 | correlation coefficient (r) with Bcl-2 [16]: −0.01 | correlation coefficient (r) with per2 [17]: −0.04 | correlation coefficient (r) with per3 [18]: 0.23 | correlation coefficient (r) with Cyclin D1- [19]: 0.06 | correlation coefficient (r) with STAT2-4 [20]: 0.43 | correlation coefficient (r) with Bad-22 [21]: 0.21 | correlation coefficient (r) with FAPP-4 [22]: 0.12 | correlation coefficient (r) with FHO-6 [23]: 0.20

C=CCN(CC(=O)OCC)C(=O)/C(C)=C/c1ccc(C(=O)Oc2ccc(C(=N)N)cc2)cc1.CS(=O)(=O)O [ONO3403]
correlation coefficient (r) with per-1 [1]: 0.04 | correlation coefficient (r) with CD44/H-CAM [2]: 0.06 | correlation coefficient (r) with CD44/3E [3]: 0.02 | correlation coefficient (r) with CD44/3s [4]: 0.15 | correlation coefficient (r) with Jagged-1 [5]: −0.02 | correlation coefficient (r) with p94-WT [6]: 0.48 | correlation coefficient (r) with FBRCA1-13 [7]: 0.06 | correlation coefficient (r) with FMDM2hwt-6 [8]: −0.22 | correlation coefficient (r) with p27-3 [9]: 0.40 | correlation coefficient (r) with MSSP-10 [10]: −0.05 | correlation coefficient (r) with MM1 [11]: 0.29 | correlation coefficient (r) with AMY1 [12]: 0.28 | correlation coefficient (r) with Max [13]: 0.20 | correlation coefficient (r) with TERT-DN [14]: 0.08 | correlation coefficient (r) with PTEN-G129R [15]: 0.03 | correlation coefficient (r) with Bcl-2 [16]: 0.35 | correlation coefficient (r) with per2 [17]: 0.17 | correlation coefficient (r) with per3 [18]: 0.14 | correlation coefficient (r) with Cyclin D1- [19]: −0.25 | correlation coefficient (r) with STAT2-4 [20]: 0.05 | correlation coefficient (r) with Bad-22 [21]: 0.18 | correlation coefficient (r) with FAPP-4 [22]: −0.32 | correlation coefficient (r) with FHO-6 [23]: 0.33

COc1cccc(-c2cc(=O)c3ccccc3o2)c1N [PD98059]
correlation coefficient (r) with per-1 [1]: −0.16 | correlation coefficient (r) with CD44/H-CAM [2]: −0.03 | correlation coefficient (r) with CD44/3E [3]: −0.26 | correlation coefficient (r) with CD44/3s [4]: −0.36 | correlation coefficient (r) with Jagged-1 [5]: −0.01 | correlation coefficient (r) with p94-WT [6]: 0.21 | correlation coefficient (r) with FBRCA1-13 [7]: −0.56 | correlation coefficient (r) with FMDM2hwt-6 [8]: −0.45 | correlation coefficient (r) with p27-3 [9]: −0.08 | correlation coefficient (r) with MSSP-10 [10]: −0.44 | correlation coefficient (r) with MM1 [11]: 0.05 | correlation coefficient (r) with AMY1 [12]: 0.21 | correlation coefficient (r) with Max [13]: 0.09 | correlation coefficient (r) with TERT-DN [14]: 0.29 | correlation coefficient (r) with PTEN-G129R [15]: 0.15 | correlation coefficient (r) with Bcl-2 [16]: 0.02 | correlation coefficient (r) with per2 [17]: 0.22 | correlation coefficient (r) with per3 [18]: 0.06 | correlation coefficient (r) with Cyclin D1- [19]: −0.21 | correlation coefficient (r) with STAT2-4 [20]: 0.15 | correlation coefficient (r) with Bad-22 [21]: 0.01 | correlation coefficient (r) with FAPP-4 [22]: −0.02 | correlation coefficient (r) with FHO-6 [23]: −0.13

O=C(O)c1cc(C(=O)O)c2c(n1)C(=O)C(=O)c1cc(C(=O)O)[nH]c1-2 [PQQ]
correlation coefficient (r) with per-1 [1]: −0.24 | correlation coefficient (r) with CD44/H-CAM [2]: 0.09 | correlation coefficient (r) with CD44/3E [3]: −0.13 | correlation coefficient (r) with CD44/3s [4]: 0.01 | correlation coefficient (r) with Jagged-1 [5]: 0.53 | correlation coefficient (r) with p94-WT [6]: 0.20 | correlation coefficient (r) with FBRCA1-13 [7]: 0.10 | correlation coefficient (r) with FMDM2hwt-6 [8]: 0.40 | correlation coefficient (r) with p27-3 [9]: 0.52 | correlation coefficient (r) with MSSP-10 [10]: 0.50 | correlation coefficient (r) with MM1 [11]: −0.03 | correlation coefficient (r) with AMY1 [12]: −0.13 | correlation coefficient (r) with Max [13]: −0.06 | correlation coefficient (r) with TERT-DN [14]: −0.62 | correlation coefficient (r) with PTEN-G129R [15]: −0.30 | correlation coefficient (r) with Bcl-2 [16]: −0.07 | correlation coefficient (r) with per2 [17]: −0.20 | correlation coefficient (r) with per3 [18]: 0.09 | correlation coefficient (r) with Cyclin D1- [19]: 0.11 | correlation coefficient (r) with STAT2-4 [20]: 0.44 | correlation coefficient (r) with Bad-22 [21]: 0.08 | correlation coefficient (r) with FAPP-4 [22]: 0.12 | correlation coefficient (r) with FHO-6 [23]: 0.30

CC(=O)N[C@@H](CSC(=O)[C@]1([C@@H](O)C(C)C)NC(=O)[C@H](C)[C@@H]1O)C(=O)O [lactacystin]
correlation coefficient (r) with per-1 [1]: 0.02 | correlation coefficient (r) with CD44/H-CAM [2]: 0.01 | correlation coefficient (r) with CD44/3E [3]: 0.09 | correlation coefficient (r) with CD44/3s [4]: 0.04 | correlation coefficient (r) with Jagged-1 [5]: 0.16 | correlation coefficient (r) with p94-WT [6]: 0.44 | correlation coefficient (r) with FBRCA1-13 [7]: −0.09 | correlation coefficient (r) with FMDM2hwt-6 [8]: −0.11 | correlation coefficient (r) with p27-3 [9]: 0.28 | correlation coefficient (r) with MM1 [11]: 0.39 | correlation coefficient (r) with AMY1 [12]: 0.21 | correlation coefficient (r) with Max [13]: 0.08 | correlation coefficient (r) with TERT-DN [14]: 0.14 | correlation coefficient (r) with PTEN-G129R [15]: 0.09 | correlation coefficient (r) with Bcl-2 [16]: 0.13 | correlation coefficient (r) with per2 [17]: 0.25 | correlation coefficient (r) with per3 [18]: 0.35 | correlation coefficient (r) with Cyclin D1- [19]: −0.13 | correlation coefficient (r) with STAT2-4 [20]: 0.15 | correlation coefficient (r) with Bad-22 [21]: 0.32 | correlation coefficient (r) with FAPP-4 [22]: −0.05 | correlation coefficient (r) with FHO-6 [23]: 0.46
